From patent US20030236190A1
These are yes or no findings as the source states them, for the method shown. Some binding calls cover weakened binding; strength is not graded here.

Molecular target: Insulin receptor prepared according to Bass et al., 1996: soluble human insulin receptor-immunoglobulin heavy chain chimera (human), P06213
Experiment: FP competition against FITC-RP9 on sIR-Fc
Conditions: remark: other sources report otherwise

B1: C1 (peptide)
peptide: CWARPCGDAANFYDWFVQQAS
In the case of B1, the binding is reported as “binds”.
